Results taken from patent US12134604B1, “1-[4,5-bis(4-chlorophenyl)-1-hexyl-1H-imidazol-2-yl]-2-naphthol as an antimicrobial compound” (KING FAISAL UNIVERSITY, priority 2023, dated 2024).
At least one structure is not confirmed: it was looked up by name or label, or the drawing left a doubt.

What was measured:
Format in all cases: cell-based
Pseudomonas aeruginosa = test: Antimicrobial screening by agar dilution, Pseudomonas aeruginosa; conditions: Ps. aeruginosa
Description: (§1) The antimicrobial properties of the 1-[4,5-bis(4-chlorophenyl)-1-hexyl-1H-imidazol-2-yl]-2-naphthol was studied by the method of agar dilution. Test solutions of each compound was prepared in concentration of 1% using dimethylformamide as a solvent then they are diluted in physiological solution to obtain the final experimental dilutions 1:100, 1:200, 1:400, 1:800. The effect of these substances are compared with furacillin in a controlled study. The testing microbes used were gram positive bacteria Staphylococcus aureus, gram negative bacteria Pseudomonas aeruginosa and Escherichia coli and Candida albicans fungi were taken. The experiments used for this survey were meat-pentonlu agar (EPA) for cultivation of bacteria and Saburo environment for fungi. Each experiment used 1 ml of test solution on each plate 500 min. Add 2 drops of emulsified with microbes feel. All experimental samples were taken from the agar after 10, 20, 40, 60 minutes in the environment on the basis of Patrk planted. Bacteria were cultivated at a temperature of 37° C. for 1 day and the mushroom was kept in a thermostat for […] at a temperature of 28° C. in the. Then results were checked.

Escherichia coli = test: Antimicrobial screening by agar dilution, Escherichia coli; conditions: E. Coli
Description: as §1

Candida albicans = test: Antimicrobial (antifungal) screening by agar dilution, Candida albicans
Description: as §1

Staphylococcus aureus = test: Antimicrobial screening by agar dilution, Staphylococcus aureus; conditions: St. Aereus
Description: as §1

[1] = dilution rate 1:100, exposure time 10 min
[2] = dilution rate 1:100, exposure time 20 min
[3] = dilution rate 1:100, exposure time 40 min
[4] = dilution rate 1:100, exposure time 60 min
[5] = dilution rate 1:200, exposure time 10 min
[6] = dilution rate 1:200, exposure time 20 min
[7] = dilution rate 1:200, exposure time 40 min
[8] = dilution rate 1:200, exposure time 60 min
[9] = dilution rate 1:400, exposure time 10 min
[10] = dilution rate 1:400, exposure time 20 min
[11] = dilution rate 1:400, exposure time 40 min
[12] = dilution rate 1:400, exposure time 60 min
[13] = dilution rate 1:800, exposure time 10 min
[14] = dilution rate 1:800, exposure time 20 min
[15] = dilution rate 1:800, exposure time 40 min
[16] = dilution rate 1:800, exposure time 60 min

NC(=O)N/N=C/c1ccc([N+](=O)[O-])o1 [Furacilin]
antimicrobial activity (Pseudomonas aeruginosa; [1]): +
antimicrobial activity (Pseudomonas aeruginosa; [2]): +
antimicrobial activity (Pseudomonas aeruginosa; [3]): +
antimicrobial activity (Pseudomonas aeruginosa; [4]): +
antimicrobial activity (Pseudomonas aeruginosa; [5]): +
antimicrobial activity (Pseudomonas aeruginosa; [6]): +
antimicrobial activity (Pseudomonas aeruginosa; [7]): +
antimicrobial activity (Pseudomonas aeruginosa; [8]): +
antimicrobial activity (Pseudomonas aeruginosa; [9]): +
antimicrobial activity (Pseudomonas aeruginosa; [10]): +
antimicrobial activity (Pseudomonas aeruginosa; [11]): +
antimicrobial activity (Pseudomonas aeruginosa; [12]): +
antimicrobial activity (Pseudomonas aeruginosa; [13]): +
antimicrobial activity (Pseudomonas aeruginosa; [14]): +
antimicrobial activity (Pseudomonas aeruginosa; [15]): +
antimicrobial activity (Pseudomonas aeruginosa; [16]): +
antimicrobial activity (Escherichia coli; [1]): −
antimicrobial activity (Escherichia coli; [2]): −
antimicrobial activity (Escherichia coli; [3]): −
antimicrobial activity (Escherichia coli; [4]): −
antimicrobial activity (Escherichia coli; [5]): +
antimicrobial activity (Escherichia coli; [6]): +
antimicrobial activity (Escherichia coli; [7]): +
antimicrobial activity (Escherichia coli; [8]): +
antimicrobial activity (Escherichia coli; [9]): +
antimicrobial activity (Escherichia coli; [10]): +
antimicrobial activity (Escherichia coli; [11]): +
antimicrobial activity (Escherichia coli; [12]): +
antimicrobial activity (Escherichia coli; [13]): +
antimicrobial activity (Escherichia coli; [14]): +
antimicrobial activity (Escherichia coli; [15]): +
antimicrobial activity (Escherichia coli; [16]): +
antimicrobial activity (Candida albicans; [1]): −
antimicrobial activity (Candida albicans; [2]): −
antimicrobial activity (Candida albicans; [3]): +
antimicrobial activity (Candida albicans; [4]): +
antimicrobial activity (Candida albicans; [5]): +
antimicrobial activity (Candida albicans; [6]): +
antimicrobial activity (Candida albicans; [7]): +
antimicrobial activity (Candida albicans; [8]): +
antimicrobial activity (Candida albicans; [9]): +
antimicrobial activity (Candida albicans; [10]): +
antimicrobial activity (Candida albicans; [11]): +
antimicrobial activity (Candida albicans; [12]): +
antimicrobial activity (Candida albicans; [13]): +
antimicrobial activity (Candida albicans; [14]): +
antimicrobial activity (Candida albicans; [15]): +
antimicrobial activity (Candida albicans; [16]): +
antimicrobial activity (Staphylococcus aureus; [1]): −
antimicrobial activity (Staphylococcus aureus; [2]): −
antimicrobial activity (Staphylococcus aureus; [3]): −
antimicrobial activity (Staphylococcus aureus; [4]): −
antimicrobial activity (Staphylococcus aureus; [5]): +
antimicrobial activity (Staphylococcus aureus; [6]): +
antimicrobial activity (Staphylococcus aureus; [7]): +
antimicrobial activity (Staphylococcus aureus; [8]): +
antimicrobial activity (Staphylococcus aureus; [9]): +
antimicrobial activity (Staphylococcus aureus; [10]): +
antimicrobial activity (Staphylococcus aureus; [11]): +
antimicrobial activity (Staphylococcus aureus; [12]): +
antimicrobial activity (Staphylococcus aureus; [13]): +
antimicrobial activity (Staphylococcus aureus; [14]): +
antimicrobial activity (Staphylococcus aureus; [15]): +
antimicrobial activity (Staphylococcus aureus; [16]): +
